Experimental data as given in PubChem BioAssay AID252 (DTP/NCI, 2004).
The list shows only some results of the screen, not a fair sample: it is rich in T/C values a quarter to a half above the control, in often repeated tests (any T/C) and in doses without a T/C. Other doses and runs of a compound stand elsewhere. T/C: endpoint of the treated group in % of that of the vehicle group. Some doses have a count of surviving animals in place of a T/C: the source files T/C as zero there, which appears to mark a toxic dose or a test without result, not a measured value. Some survivor counts are full or nearly so, which does not show that the dose was tolerated: survival well below the control is almost never listed, so the zero probably covers shortened survival too. Survivors were counted at the toxicity check, usually on the fifth day, unless a day is given; later deaths do not show. Schedule codes are those of the source, taken here to give the interval after Q, in days (D) or hours (H), and the number of doses after X. Some schedules carry Z or #; the key to these is not given. Some entries were tested several times; the values are given in rising order. Where survival is the endpoint, this PubChem deposit counts one and a half times the control or more as active, and values a quarter to a half above the control carry no call in these data; other NCI protocols may use other cut-offs. Counts like (3×) say how often a value occurs here. Some T/C values carry the count of animals alive at the toxicity check (mostly the fifth day); without a count, all were alive then.

Tested on: BDF1 mice, intracerebral L1210 leukemia, survival T/C
Assay: NCI In Vivo Anticancer Drug Screen. Data for tumor model L1210 Leukemia (intracerebral) in B6D2F1 (BDF1) mice
Details: higher T/C = longer survival
Outline: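 Survival measured in treated and vehicle-control tumour-bearing mice; value = T/C.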

Structure (SMILES): O=P1(N(CCCl)CCCl)NCCCO1 (configuration not stated)
- T/C (T/C endpoint: mean survival time, dose: 23.0 mg/kg/injection, schedule: Q01DX009 (sc), vehicle: saline): 136 % of control
- T/C (T/C endpoint: mean survival time, dose: 35.0 mg/kg/injection, schedule: Q01DX Z (ip), vehicle: saline): 127 % of control
- T/C (T/C endpoint: mean survival time, dose: 50.0 mg/kg/injection, schedule: Q01DX001 (ip), vehicle: saline, evaluated on day 5): 106 and 110 % of control
- T/C (T/C endpoint: mean survival time, dose: 50.0 mg/kg/injection, schedule: Q01DX001 (ip), vehicle: saline, evaluated on day 30): 100 % of control
- T/C (T/C endpoint: mean survival time, dose: 50.0 mg/kg/injection, schedule: Q01DX001 (ip), vehicle: saline, evaluated on day 33): 103 % of control
- T/C (T/C endpoint: mean survival time, dose: 50.0 mg/kg/injection, schedule: Q01DX001 (ip), vehicle: saline, evaluated on day 40): 106 % of control
- T/C (T/C endpoint: mean survival time, dose: 50.0 mg/kg/injection, schedule: Q01DX015 (ip), vehicle: saline): 131 % of control
- T/C (T/C endpoint: mean survival time, dose: 50.0 mg/kg/injection, schedule: Q01DX Z (ip), vehicle: saline): 130 and 139 % of control
- T/C (T/C endpoint: mean survival time, dose: 59.0 mg/kg/injection, schedule: Q01DX001 (ip), vehicle: saline): 125 % of control
- T/C (T/C endpoint: mean survival time, dose: 70.0 mg/kg/injection, schedule: Q01DX001 (ip), vehicle: saline, evaluated on day 7): 130 % of control
- T/C (T/C endpoint: mean survival time, dose: 70.0 mg/kg/injection, schedule: Q01DX001 (ip), vehicle: saline, evaluated on day 20): 130 % of control
- T/C (T/C endpoint: mean survival time, dose: 100.0 mg/kg/injection, schedule: Q01DX001 (ip), vehicle: saline, evaluated on day 5): 112 and 123 % of control
- T/C (T/C endpoint: mean survival time, dose: 100.0 mg/kg/injection, schedule: Q01DX001 (ip), vehicle: saline, evaluated on day 21): 123 % of control
- T/C (T/C endpoint: mean survival time, dose: 100.0 mg/kg/injection, schedule: Q01DX001 (ip), vehicle: saline, evaluated on day 30): 123 % of control
- T/C (T/C endpoint: mean survival time, dose: 100.0 mg/kg/injection, schedule: Q01DX001 (ip), vehicle: saline, evaluated on day 33): 117 % of control
- T/C (T/C endpoint: mean survival time, dose: 100.0 mg/kg/injection, schedule: Q01DX001 (ip), vehicle: saline, evaluated on day 40): 112 % of control
- T/C (T/C endpoint: mean survival time, dose: 100.0 mg/kg/injection, schedule: Q08DX002 (ip), vehicle: saline): 126 % of control
- T/C (T/C endpoint: mean survival time, dose: 101.0 mg/kg/injection, schedule: Q01DX001 (ip), vehicle: saline): 134 % of control
- T/C (T/C endpoint: mean survival time, dose: 108.0 mg/kg/injection, schedule: Q01DX001 (ip), vehicle: saline, evaluated on day 7): 126 % of control
- T/C (T/C endpoint: mean survival time, dose: 108.0 mg/kg/injection, schedule: Q01DX001 (ip), vehicle: saline, evaluated on day 26): 126 % of control
- T/C (T/C endpoint: mean survival time, dose: 108.0 mg/kg/injection, schedule: Q08DX002 (ip), vehicle: saline, evaluated on day 6): 134 % of control
- T/C (T/C endpoint: mean survival time, dose: 108.0 mg/kg/injection, schedule: Q08DX002 (ip), vehicle: saline, evaluated on day 7): 109 % of control
- T/C (T/C endpoint: mean survival time, dose: 108.0 mg/kg/injection, schedule: Q08DX002 (ip), vehicle: saline, evaluated on day 27): 113 % of control
- T/C (T/C endpoint: mean survival time, dose: 108.0 mg/kg/injection, schedule: Q08DX002 (ip), vehicle: saline, evaluated on day 45): 134 % of control
- T/C (T/C endpoint: mean survival time, dose: 118.0 mg/kg/injection, schedule: Q01DX001 (ip), vehicle: saline): 134 % of control
- T/C (T/C endpoint: mean survival time, dose: 140.0 mg/kg/injection, schedule: Q01DX001 (ip), vehicle: saline, evaluated on day 7): 132 % of control
- T/C (T/C endpoint: mean survival time, dose: 140.0 mg/kg/injection, schedule: Q01DX001 (ip), vehicle: saline, evaluated on day 20): 132 % of control
- T/C (T/C endpoint: mean survival time, dose: 154.0 mg/kg/injection, schedule: Q01DX001 (ip), vehicle: saline): 132 % of control
- T/C (T/C endpoint: mean survival time, dose: 180.0 mg/kg/injection, schedule: Q01DX001 (ip), vehicle: saline, evaluated on day 7): 139 % of control
- T/C (T/C endpoint: mean survival time, dose: 180.0 mg/kg/injection, schedule: Q01DX001 (ip), vehicle: saline, evaluated on day 26): 139 % of control
- T/C (T/C endpoint: mean survival time, dose: 180.0 mg/kg/injection, schedule: Q08DX002 (ip), vehicle: saline, evaluated on day 6): 150 % of control
- T/C (T/C endpoint: mean survival time, dose: 180.0 mg/kg/injection, schedule: Q08DX002 (ip), vehicle: saline, evaluated on day 7): 107 % of control
- T/C (T/C endpoint: mean survival time, dose: 180.0 mg/kg/injection, schedule: Q08DX002 (ip), vehicle: saline, evaluated on day 27): 111 % of control
- T/C (T/C endpoint: mean survival time, dose: 180.0 mg/kg/injection, schedule: Q08DX002 (ip), vehicle: saline, evaluated on day 45): 149 % of control
- T/C (T/C endpoint: mean survival time, dose: 200.0 mg/kg/injection, schedule: Q01DX001 (ip), vehicle: DMSO): 133 and 142 % of control
- T/C (T/C endpoint: mean survival time, dose: 200.0 mg/kg/injection, schedule: Q01DX001 (ip), vehicle: Klucel (hydroxypropylcellulose) (HPC)): 142 % of control
- T/C (T/C endpoint: mean survival time, dose: 200.0 mg/kg/injection, schedule: Q01DX001 (ip), vehicle: saline, evaluated on day 5): 126 % of control (2×)
- T/C (T/C endpoint: mean survival time, dose: 200.0 mg/kg/injection, schedule: Q01DX001 (ip), vehicle: saline, evaluated on day 21): 124 % of control
- T/C (T/C endpoint: mean survival time, dose: 200.0 mg/kg/injection, schedule: Q01DX001 (ip), vehicle: saline, evaluated on day 30): 126 % of control [7 of 8 alive]
- T/C (T/C endpoint: mean survival time, dose: 200.0 mg/kg/injection, schedule: Q01DX001 (ip), vehicle: saline, evaluated on day 33): 122 % of control
- T/C (T/C endpoint: mean survival time, dose: 200.0 mg/kg/injection, schedule: Q01DX001 (ip), vehicle: saline, evaluated on day 40): 126 % of control
- T/C (T/C endpoint: mean survival time, dose: 200.0 mg/kg/injection, schedule: Q01DX001 (ip), vehicle: saline, evaluated on day 45): 124 % of control
- survivor count (T/C endpoint: mean survival time, dose: 200.0 mg/kg/injection, schedule: Q01DX Z (ip), vehicle: saline): 6 of 6
- T/C (T/C endpoint: mean survival time, dose: 200.0 mg/kg/injection, schedule: Q08DX002 (ip), vehicle: saline, evaluated on day 21): 132 % of control
- T/C (T/C endpoint: mean survival time, dose: 200.0 mg/kg/injection, schedule: Q08DX002 (ip), vehicle: saline, evaluated on day 40): 127 % of control
- T/C (T/C endpoint: mean survival time, dose: 234.0 mg/kg/injection, schedule: Q01DX001 (ip), vehicle: saline): 143 % of control [9 of 10 alive]
- survivor count (T/C endpoint: mean survival time, dose: 250.0 mg/kg/injection, schedule: Q01DX Z (ip), vehicle: saline): 6 of 6
- T/C (T/C endpoint: mean survival time, dose: 280.0 mg/kg/injection, schedule: Q01DX001 (ip), vehicle: saline, evaluated on day 7): 142 % of control
- T/C (T/C endpoint: mean survival time, dose: 280.0 mg/kg/injection, schedule: Q01DX001 (ip), vehicle: saline, evaluated on day 20): 142 % of control
- T/C (T/C endpoint: mean survival time, dose: 300.0 mg/kg/injection, schedule: Q01DX001 (ip), vehicle: saline): 139 % of control
- T/C (T/C endpoint: mean survival time, dose: 300.0 mg/kg/injection, schedule: Q08DX002 (ip), vehicle: saline, evaluated on day 6): 85 % of control
- T/C (T/C endpoint: mean survival time, dose: 300.0 mg/kg/injection, schedule: Q08DX002 (ip), vehicle: saline, evaluated on day 7): 101 % of control
- T/C (T/C endpoint: mean survival time, dose: 300.0 mg/kg/injection, schedule: Q08DX002 (ip), vehicle: saline, evaluated on day 27): 105 % of control [6 of 8 alive]
- survivor count (T/C endpoint: mean survival time, dose: 300.0 mg/kg/injection, schedule: Q08DX002 (ip), vehicle: saline): 3 of 8
- survivor count (T/C endpoint: mean survival time, dose: 375.0 mg/kg/injection, schedule: Q01DX Z (ip), vehicle: saline): 1 of 6
- survivor count (T/C endpoint: mean survival time, dose: 400.0 mg/kg/injection, schedule: Q01DX001 (ip), vehicle: DMSO): 8 of 8
- survivor count (T/C endpoint: mean survival time, dose: 400.0 mg/kg/injection, schedule: Q01DX001 (ip), vehicle: Klucel (hydroxypropylcellulose) (HPC)): 0 of 8 and 4 of 8
- T/C (T/C endpoint: mean survival time, dose: 400.0 mg/kg/injection, schedule: Q01DX001 (ip), vehicle: saline, evaluated on day 5): 75 and 132 % of control
- T/C (T/C endpoint: mean survival time, dose: 400.0 mg/kg/injection, schedule: Q01DX001 (ip), vehicle: saline, evaluated on day 21): 130 % of control
- T/C (T/C endpoint: mean survival time, dose: 400.0 mg/kg/injection, schedule: Q01DX001 (ip), vehicle: saline, evaluated on day 33): 124 % of control
- survivor count (T/C endpoint: mean survival time, dose: 400.0 mg/kg/injection, schedule: Q01DX001 (ip), vehicle: saline): 2 of 8 and 3 of 8
- survivor count (T/C endpoint: mean survival time, dose: 400.0 mg/kg/injection, schedule: Q01DX001 (ip), vehicle: water): 8 of 8
- survivor count (T/C endpoint: mean survival time, dose: 500.0 mg/kg/injection, schedule: Q01DX001 (ip), vehicle: saline): 4 of 8
- survivor count (T/C endpoint: mean survival time, dose: 500.0 mg/kg/injection, schedule: Q01DX Z (ip), vehicle: saline): 0 of 6
- T/C (T/C endpoint: mean survival time, dose: 1120.0 mg/kg/injection, schedule: Q01DX001 (ip), vehicle: saline, evaluated on day 7): 132 % of control
- T/C (T/C endpoint: mean survival time, dose: 1120.0 mg/kg/injection, schedule: Q01DX001 (ip), vehicle: saline, evaluated on day 20): 132 % of control
- T/C (T/C endpoint: median survival time, dose: 4000.0 mg/kg/injection, schedule: Q01DX001 (oral), vehicle: saline): 126 % of control
